Laboratory results: PubChem BioAssay AID743121 (NCATS, 2013)
Purpose: 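Knock-downs that sensitise breast cancer cells to camptothecin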 (primary screen). Cell system: MDA-MB-231 cells, a human breast cancer line. Reagent: single siRNA against human genes, 20 nM siRNA (0.8 pmol per well). Time to read-out: 120 h (drug added 48 h after transfection, read 72 h later). Treatment: camptothecin 20 nM (about EC30) for 72 h; vehicle 0.1% DMSO in parallel plates. Read-out: 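CellTiter-Glo ATP signal, scaled to control siRNA as percent viability; sensitisation given as log2 of untreated divided by camptothecin-treated viability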. Scale: log2 vehicle/camptothecin viability: higher = stronger sensitisation to camptothecin. Active means: 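Each gene scored by redundant siRNA activity (RSA) over its individual siRNA ratios; a gene is called active at p < 0.001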.
This is a random part of about 26,000 deposited reagents. In the full data, 167 (0.63%) got an active call. 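Calls are per gene from RSA p-values that are not deposited; an individual active-marked siRNA can sensitise only weakly.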 Unmarked entries are inactive. Reagents against one gene are numbered here. Not all columns of the deposit are shown.

The opening 2 entries, ahead of the listing:
target gene	siRNA no.	log2 vehicle/camptothecin viability
IFNA21 (interferon alpha 21)	1	-0.000639
IFNA21 (interferon alpha 21)	2	-0.292

The list itself, from the start:
target gene	siRNA no.	log2 vehicle/camptothecin viability
IFNA21 (interferon alpha 21)	1	-0.000639
IFNA21 (interferon alpha 21)	2	-0.292
IFNA21 (interferon alpha 21)	3	0.257
IFNA21 (interferon alpha 21)	4	-0.333
CD300LB (CD300 molecule like family member b)	1	0.253
CD300LB (CD300 molecule like family member b)	2	0.00838
CD300LB (CD300 molecule like family member b)	3	-0.385
CD300LB (CD300 molecule like family member b)	4	0.495
SERPINA13P (serpin family A member 13, pseudogene)	1	-0.245
SERPINA13P (serpin family A member 13, pseudogene)	2	-0.257
SERPINA13P (serpin family A member 13, pseudogene)	3	-0.463
SERPINA13P (serpin family A member 13, pseudogene)	4	-0.294
C5 (complement C5)	1	-0.0474
C5 (complement C5)	2	-0.075
C5 (complement C5)	3	-0.11
C5 (complement C5)	4	-0.221
OR51B4 (olfactory receptor family 51 subfamily B member 4)	1	0.236
OR51B4 (olfactory receptor family 51 subfamily B member 4)	2	0.817
OR51B4 (olfactory receptor family 51 subfamily B member 4)	3	-0.682
OR51B4 (olfactory receptor family 51 subfamily B member 4)	4	-0.292
ACSL4 (acyl-CoA synthetase long chain family member 4)	1	-0.414
ACSL4 (acyl-CoA synthetase long chain family member 4)	2	-0.102
ACSL4 (acyl-CoA synthetase long chain family member 4)	3	0.383
ACSL4 (acyl-CoA synthetase long chain family member 4)	4	-0.115
CHKB (choline kinase beta)	1	-0.00399
CHKB (choline kinase beta)	2	0.28
CHKB (choline kinase beta)	3	-0.239
CHKB (choline kinase beta)	4	-0.207
CHKB (choline kinase beta)	5	-0.125
CHKB (choline kinase beta)	6	-0.111
CHKB (choline kinase beta)	7	-0.0198
CHKB (choline kinase beta)	8	0.515
CBR3 (carbonyl reductase 3)	1	-0.177
CBR3 (carbonyl reductase 3)	2	-0.162
CBR3 (carbonyl reductase 3)	3	-0.23
CBR3 (carbonyl reductase 3)	4	-0.0738
SEMA3G (semaphorin 3G)	1	0.0915
SEMA3G (semaphorin 3G)	2	-0.502
SEMA3G (semaphorin 3G)	3	-0.216
SEMA3G (semaphorin 3G)	4	-0.000103
TSPYL2 (TSPY like 2)	1	-0.187
TSPYL2 (TSPY like 2)	2	-0.167
TSPYL2 (TSPY like 2)	3	-0.56
TSPYL2 (TSPY like 2)	4	0.179
DNMT1 (DNA methyltransferase 1)	1	-0.0779
DNMT1 (DNA methyltransferase 1)	2	0.0551
DNMT1 (DNA methyltransferase 1)	3	0.0922
DNMT1 (DNA methyltransferase 1)	4	-0.148
SLC20A1	1	-0.283
SLC20A1	2	-0.463
SLC20A1	3	0.0127
SLC20A1	4	-0.387
DHRS11 (dehydrogenase/reductase 11)	1	1.78
DHRS11 (dehydrogenase/reductase 11)	2	-0.202
DHRS11 (dehydrogenase/reductase 11)	3	-0.177
DHRS11 (dehydrogenase/reductase 11)	4	-0.305
PRMT6 (protein arginine methyltransferase 6)	1	0.0635
PRMT6 (protein arginine methyltransferase 6)	2	-0.416
PRMT6 (protein arginine methyltransferase 6)	3	-0.21
PRMT6 (protein arginine methyltransferase 6)	4	-0.279
PLAT (plasminogen activator, tissue type)	1	-0.132
PLAT (plasminogen activator, tissue type)	2	0.228
PLAT (plasminogen activator, tissue type)	3	-0.209
PLAT (plasminogen activator, tissue type)	4	-0.0722
DVL3 (dishevelled segment polarity protein 3)	1	-0.289
DVL3 (dishevelled segment polarity protein 3)	2	0.392
DVL3 (dishevelled segment polarity protein 3)	3	-0.0855
DVL3 (dishevelled segment polarity protein 3)	4	0.0685
